Substrate in the assay: CBP (human (endogenous in HeLa)) (UniProt Q92793)
The experiment in a line: co-IP; whole cell extracts (RIPA buffer, 1 mg total protein) of HeLa cells transfected with pCMV-NPAT; rabbit anti-CBP overnight at 4°C in 50 mM Tris-HCl pH 7.4, 150 mM NaCl, 0.25% deoxycholic acid, 1% NP-40, 1 mM EDTA, 1 mM NaF; Dynabeads protein A; blot with mouse anti-CBP or mouse anti-NPAT.

Amino acid sequences for entries named in this document (tags omitted).
UniProt Q92793: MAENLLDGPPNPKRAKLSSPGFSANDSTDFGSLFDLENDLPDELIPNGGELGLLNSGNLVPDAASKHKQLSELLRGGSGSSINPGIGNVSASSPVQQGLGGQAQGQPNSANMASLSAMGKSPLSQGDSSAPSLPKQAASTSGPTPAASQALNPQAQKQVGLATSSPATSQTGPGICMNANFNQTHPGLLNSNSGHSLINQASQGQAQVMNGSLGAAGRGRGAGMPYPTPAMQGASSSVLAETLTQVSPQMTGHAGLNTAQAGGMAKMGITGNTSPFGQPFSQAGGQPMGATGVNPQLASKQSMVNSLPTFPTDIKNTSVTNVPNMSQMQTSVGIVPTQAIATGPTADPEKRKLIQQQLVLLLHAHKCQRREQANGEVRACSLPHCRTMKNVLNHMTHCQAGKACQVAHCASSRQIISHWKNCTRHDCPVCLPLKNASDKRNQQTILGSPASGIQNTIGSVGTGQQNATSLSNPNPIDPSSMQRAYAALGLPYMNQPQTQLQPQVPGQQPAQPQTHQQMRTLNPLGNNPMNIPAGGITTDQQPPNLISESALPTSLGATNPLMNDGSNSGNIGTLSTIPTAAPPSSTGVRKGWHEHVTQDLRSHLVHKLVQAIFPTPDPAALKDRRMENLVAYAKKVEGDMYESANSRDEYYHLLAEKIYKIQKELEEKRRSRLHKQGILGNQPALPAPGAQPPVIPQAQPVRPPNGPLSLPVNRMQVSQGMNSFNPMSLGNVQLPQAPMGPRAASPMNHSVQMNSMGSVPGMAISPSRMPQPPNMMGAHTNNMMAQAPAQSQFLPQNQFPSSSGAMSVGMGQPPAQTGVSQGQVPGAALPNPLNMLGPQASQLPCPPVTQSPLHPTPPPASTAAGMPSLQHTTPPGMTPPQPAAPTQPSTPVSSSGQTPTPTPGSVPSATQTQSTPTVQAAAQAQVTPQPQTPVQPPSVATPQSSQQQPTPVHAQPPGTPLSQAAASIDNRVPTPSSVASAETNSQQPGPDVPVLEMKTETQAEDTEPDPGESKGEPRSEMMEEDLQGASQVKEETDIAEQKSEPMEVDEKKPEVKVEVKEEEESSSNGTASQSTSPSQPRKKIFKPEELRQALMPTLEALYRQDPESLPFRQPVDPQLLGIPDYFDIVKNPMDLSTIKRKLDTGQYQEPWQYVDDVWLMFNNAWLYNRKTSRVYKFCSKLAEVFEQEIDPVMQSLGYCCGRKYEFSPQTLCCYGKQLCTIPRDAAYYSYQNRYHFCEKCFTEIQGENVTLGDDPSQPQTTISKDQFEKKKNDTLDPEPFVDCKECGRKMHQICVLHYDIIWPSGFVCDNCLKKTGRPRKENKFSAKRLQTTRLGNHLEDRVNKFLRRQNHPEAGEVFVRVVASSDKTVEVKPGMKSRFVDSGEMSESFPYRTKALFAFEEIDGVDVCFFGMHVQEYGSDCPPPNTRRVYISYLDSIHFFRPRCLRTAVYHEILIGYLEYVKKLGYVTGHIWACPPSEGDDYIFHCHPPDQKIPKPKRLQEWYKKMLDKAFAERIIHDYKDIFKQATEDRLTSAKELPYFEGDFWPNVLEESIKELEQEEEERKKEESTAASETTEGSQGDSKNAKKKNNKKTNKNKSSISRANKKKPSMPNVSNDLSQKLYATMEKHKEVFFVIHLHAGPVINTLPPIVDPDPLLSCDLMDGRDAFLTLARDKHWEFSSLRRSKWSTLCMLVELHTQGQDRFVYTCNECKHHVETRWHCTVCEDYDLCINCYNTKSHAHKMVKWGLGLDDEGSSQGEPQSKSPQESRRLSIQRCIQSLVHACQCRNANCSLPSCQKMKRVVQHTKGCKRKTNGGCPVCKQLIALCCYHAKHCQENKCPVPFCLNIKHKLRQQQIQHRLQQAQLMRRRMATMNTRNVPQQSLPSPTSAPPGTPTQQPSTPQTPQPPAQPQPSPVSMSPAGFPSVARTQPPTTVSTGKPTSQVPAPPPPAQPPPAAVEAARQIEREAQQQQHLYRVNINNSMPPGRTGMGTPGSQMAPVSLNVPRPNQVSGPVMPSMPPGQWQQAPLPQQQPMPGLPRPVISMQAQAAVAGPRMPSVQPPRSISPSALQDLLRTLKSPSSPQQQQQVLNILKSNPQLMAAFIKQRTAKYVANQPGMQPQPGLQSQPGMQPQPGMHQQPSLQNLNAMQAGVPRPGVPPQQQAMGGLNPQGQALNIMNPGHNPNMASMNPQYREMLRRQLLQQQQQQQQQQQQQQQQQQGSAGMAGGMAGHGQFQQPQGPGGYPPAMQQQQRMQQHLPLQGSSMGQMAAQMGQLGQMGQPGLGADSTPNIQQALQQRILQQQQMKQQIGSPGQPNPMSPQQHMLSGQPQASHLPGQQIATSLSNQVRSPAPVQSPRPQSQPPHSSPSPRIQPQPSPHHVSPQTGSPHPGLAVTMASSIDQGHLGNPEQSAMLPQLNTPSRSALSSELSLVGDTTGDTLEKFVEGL

Results are given in words; binding and its absence hold for the method and conditions named. Binding seen in cells or lysates may run through a third protein. Some binding calls cover weakened binding; strength is not graded here.

B1: NPAT (protein, UniProt Q14207 1-1427)
chain: MLLPSDVARLVLGYLQQENLISTCQTFILESSDLKEYAEHCTDEGFIPACLLSLFGKNLTTILNEYVAMKTKETSNNVPAIMSSLWKKLDHTLSQIRSMQSSPRFAGSQRARTRTGIAEIKRQRKLASQTAPASAELLTLPYLSGQFTTPPSTGTQVTRPSGQISDPSRSYFVVVNHSQSQDTVTTGEALNVIPGAQEKKAHASLMSPGRRKSESQRKSTTLSGPHSTIRNFQDPNAFAVEKQMVIENAREKILSNKSLQEKLAENINKFLTSDNNIAQVPKQTDNNPTEPETSIDEFLGLPSEIHMSEEAIQDILEQTESDPAFQALFDLFDYGKTKNNKNISQSISSQPMESNPSIVLADETNLAVKGSFETEESDGQSGQPAFCTSYQNDDPLNALKNSNNHDVLRQEDQENFSQISTSIQKKAFKTAVPTEQKCDIDITFESVPNLNDFNQRGNSNAECNPHCAELYTNQMSTETEMAIGIEKNSLSSNVPSESQLQPDQPDIPITSFVSLGCEANNENLILSGKSSQLLSQDTSLTGKPSKKSQFCENSNDTVKLKINFHGSKSSDSSEVHKSKIEINVLEPVMSQLSNCQDNSCLQSEILPVSVESSHLNVSGQVEIHLGDSLSSTKQPSNDSASVELNHTENEAQASKSENSQEPSSSVKEENTIFLSLGGNANCEKVALTPPEGTPVENSHSLPPESVCSSVGDSHPESQNTDDKPSSNNSAEIDASNIVSLKVIISDDPFVSSDTELTSAVSSINGENLPTIILSSPTKSPTKNAELVKCLSSEETVGAVVYAEVGDSASMEQSLLTFKSEDSAVNNTQNEDGIAFSANVTPCVSKDGGYIQLMPATSTAFGNSNNILIATCVTDPTALGTSVSQSNVVVLPGNSAPMTAQPLPPQLQTPPRSNSVFAVNQAVSPNFSQGSAIIIASPVQPVLQGMVGMIPVSVVGQNGNNFSTPPRQVLHMPLTAPVCNRSIPQFPVPPKSQKAQGLRNKPCIGKQVNNLVDSSGHSVGCHAQKTEVSDKSIATDLGKKSEETTVPFPEESIVPAAKPCHRRVLCFDSTTAPVANTQGPNHKMVSQNKERNAVSFPNLDSPNVSSTLKPPSNNAIKREKEKPPLPKILSKSESAISRHTTIRETQSEKKVSPTEIVLESFHKATANKENELCSDVERQKNPENSKLSIGQQNGGLRSEKSIASLQEMTKKQGTSSNNKNVLSVGTAVKDLKQEQTKSASSLITTEMLQDIQRHSSVSRLADSSDLPVPRTPGSGAGEKHKEEPIDIIKAPSSRRFSEDSSTSKVMVPPVTPDLPACSPASETGSENSVNMAAHTLMILSRAAISRTTSATPLKDNTQQFRASSRSTTKKRKIEELDERERNSRPSSKNLTNSSIPMKKKKIKKKKLPSSFPAGMDVDKFLLSLHYDE
As for B1, the binding entry is given as “binds”.

The values are drawn from article PMC3137613.
